These are yes or no findings as the source states them, for the method shown. Binding seen in cells or lysates may run through a third protein. Some binding calls cover weakened binding; strength is not graded here. For some assays here: Tags and fused reporters may be left off the sequences shown. Blank lines part the entries; values can stand above or below the molecule they belong to.
Key:
[1] = biological target: T1, transducin (beta)-like 1 X-linked (mouse (endogenous in TSCs)) (UniProt Q9QXE7); assay: co-IP; self-renewing (SR) TSCs; Supplementary Fig. 7b; the bait is not given, the co-IP methods list anti-Tbl1x for precipitation and anti-Sox2 for the blot
T1 sequence: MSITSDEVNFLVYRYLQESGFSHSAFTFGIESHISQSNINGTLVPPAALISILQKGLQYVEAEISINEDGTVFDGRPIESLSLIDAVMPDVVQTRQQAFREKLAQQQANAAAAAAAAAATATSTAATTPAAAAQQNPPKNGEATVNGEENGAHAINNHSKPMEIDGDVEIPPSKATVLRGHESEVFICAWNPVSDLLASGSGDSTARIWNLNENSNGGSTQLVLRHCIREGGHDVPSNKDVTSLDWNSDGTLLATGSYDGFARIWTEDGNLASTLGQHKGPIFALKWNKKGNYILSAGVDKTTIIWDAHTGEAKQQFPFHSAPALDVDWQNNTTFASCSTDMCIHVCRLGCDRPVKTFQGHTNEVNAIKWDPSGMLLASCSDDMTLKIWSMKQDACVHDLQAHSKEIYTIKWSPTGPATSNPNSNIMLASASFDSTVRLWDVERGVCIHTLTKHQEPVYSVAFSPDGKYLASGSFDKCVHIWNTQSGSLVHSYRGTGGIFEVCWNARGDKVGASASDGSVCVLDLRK

By UniProt entry, the sequences of proteins in these tests, tags left out.
UniProt P48432: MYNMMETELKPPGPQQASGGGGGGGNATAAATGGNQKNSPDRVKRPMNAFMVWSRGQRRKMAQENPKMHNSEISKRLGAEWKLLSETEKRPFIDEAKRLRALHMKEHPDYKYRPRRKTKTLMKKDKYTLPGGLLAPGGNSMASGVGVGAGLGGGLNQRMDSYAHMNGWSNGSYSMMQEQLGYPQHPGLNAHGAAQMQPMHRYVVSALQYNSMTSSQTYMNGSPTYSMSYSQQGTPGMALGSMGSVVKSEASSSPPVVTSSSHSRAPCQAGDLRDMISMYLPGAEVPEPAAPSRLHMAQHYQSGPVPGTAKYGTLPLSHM

[2] = biological target: T1, transducin (beta)-like 1 X-linked (mouse (endogenous in TSCs)); assay: co-IP; endogenous Tbl1x precipitated with anti-Tbl1x and protein G Dynabeads from TSC lysate in Hunt buffer (20 mM Tris-HCl pH 8, 100 mM NaCl, 1 mM EDTA, 0.5% NP-40), overnight at 4 C; Western blot; IgG as negative control

binding [1]: no binding
Molecule: Sox2 (from UniProt P48432 1-319)

binding [2]: binds
B1: Erf tagged with V5 at the endogenous locus (protein, UniProt P70459 1-551)
chain: MKTPADTGFAFPDWAYKPESSPGSRQIQLWHFILELLRKEEYQGVIAWQGDYGEFVIKDPDEVARLWGVRKCKPQMNYDKLSRALRYYYNKRILHKTKGKRFTYKFNFNKLVLVNYPFIDMGLAGGAVPQSAPPVPSGGSHFRFPPSTPSEVLSPTEDPRSPPACSSSSSSLFSAVVARRLGRGSVSDCSDGTSELEEPLGEDPRARPPGPPELGAFRGPPLARLPHDPGVFRVYPRPRGGPEPLSPFPVSPLAGPGSLLPPQLSPALPMTPTHLAYTPSPTLSPMYPSGGGGPSGSGGGSHFSFSPEDMKRYLQAHTQSVYNYHLSPRAFLHYPGLVVPQPQRPDKCPLPPMAPETPPVPSSASSSSSSSSSPFKFKLQPPPLGRRQRAAGEKAPGGTDKSSGGSGSGGLAEGAGAVAPPPPPPQIKVEPISEGESEEVEVTDISDEDEEDGEVFKTPRAPPAPPKPEPGEAPGVAQCMPLKLRFKRRWSEDCRLEGGGCLSGGPEDEGEDKKVRGDVGPGESGGPLTPRRVSSDLQHATAQLSLEHRDS

— PMC10193302
